One experiment addresses Flag-TOP1 (UniProt P11387). As to the kind of experiment: co-IP; Flag-TOP1 and HA-cGAS co-transfected into CC cells; lysate, protein A&G sepharose beads, Western blot. (In general: A western blot detects proteins with antibodies after separation by electrophoresis.)
Experiment [1] concerns the target topoisomerase I (TOP1), endogenous (human (endogenous in CC cells)) (UniProt P11387). As to the kind of experiment: co-IP; endogenous proteins in CC cells; IP lysis buffer, specific antibody overnight, protein A&G sepharose beads 2 h at 4°C, Western blot; IgG control group.

By UniProt entry, the sequences of proteins in these tests, tags left out.
UniProt P11387: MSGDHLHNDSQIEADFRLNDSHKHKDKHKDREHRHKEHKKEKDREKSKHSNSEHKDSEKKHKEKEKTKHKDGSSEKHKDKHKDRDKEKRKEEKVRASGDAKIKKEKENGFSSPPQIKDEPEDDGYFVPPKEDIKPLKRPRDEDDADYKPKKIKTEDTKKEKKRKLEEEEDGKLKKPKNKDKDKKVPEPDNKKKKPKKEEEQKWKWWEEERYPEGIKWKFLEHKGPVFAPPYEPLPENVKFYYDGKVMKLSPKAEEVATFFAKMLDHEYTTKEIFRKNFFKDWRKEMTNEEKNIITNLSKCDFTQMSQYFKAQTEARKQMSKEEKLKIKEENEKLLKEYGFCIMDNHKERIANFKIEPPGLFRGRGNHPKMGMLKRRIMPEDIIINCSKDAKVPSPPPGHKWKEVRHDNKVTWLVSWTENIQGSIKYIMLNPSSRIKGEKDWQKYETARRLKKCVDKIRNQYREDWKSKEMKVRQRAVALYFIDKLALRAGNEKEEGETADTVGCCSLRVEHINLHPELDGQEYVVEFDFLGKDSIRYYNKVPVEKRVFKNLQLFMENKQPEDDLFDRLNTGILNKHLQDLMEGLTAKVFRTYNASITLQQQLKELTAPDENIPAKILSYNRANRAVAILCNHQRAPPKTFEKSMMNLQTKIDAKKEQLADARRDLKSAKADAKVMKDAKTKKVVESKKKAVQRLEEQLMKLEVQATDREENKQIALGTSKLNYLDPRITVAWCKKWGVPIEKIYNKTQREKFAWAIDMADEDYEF
UniProt Q8N884: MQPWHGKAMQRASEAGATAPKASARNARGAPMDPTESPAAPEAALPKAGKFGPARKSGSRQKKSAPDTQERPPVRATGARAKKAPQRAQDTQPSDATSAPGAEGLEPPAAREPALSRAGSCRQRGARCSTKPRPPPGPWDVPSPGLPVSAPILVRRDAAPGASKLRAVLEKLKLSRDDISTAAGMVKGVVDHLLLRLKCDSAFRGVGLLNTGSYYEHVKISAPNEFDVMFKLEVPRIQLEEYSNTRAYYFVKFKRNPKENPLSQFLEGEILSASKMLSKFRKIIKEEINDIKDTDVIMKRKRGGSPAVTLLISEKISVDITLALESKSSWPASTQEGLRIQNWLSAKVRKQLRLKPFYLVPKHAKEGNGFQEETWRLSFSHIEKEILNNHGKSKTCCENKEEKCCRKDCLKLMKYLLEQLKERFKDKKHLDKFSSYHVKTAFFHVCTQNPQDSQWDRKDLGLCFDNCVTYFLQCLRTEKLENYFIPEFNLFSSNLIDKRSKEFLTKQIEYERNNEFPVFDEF

No constants are given. Whether binding was seen depends on the method and setting. In cells and extracts the contact can be indirect. Some entries that bind do so weakly or less than the wild type.

As to HA-cGAS (from UniProt Q8N884 1-522), in the experiment with Flag-TOP1, the binding result is “binds”. Regarding “cyclic GMP-AMP synthase (cGAS), endogenous (from UniProt Q8N884 1-522)”, the binding entry in experiment [1] is listed as “binds”.

These data come from publication PMC11327024.
